Measurements as given in PubChem BioAssay AID743255 (National Center for Advancing Translational Sciences (NCATS), 2014).
About 910 (0.23%) of roughly 390,000 compounds were called active. Inconclusive means that the source gave no clear call. Such entries were picked first, then a sample of the others. The call rests on the fitted dose curve; in most records, active means well fitted inhibition curve with a large enough effect; inconclusive means small, poorly fitted or top-dose-only effect; inactive means no such curve, though single readings can be large or run the other way. Potencies beside an inconclusive call are fits to weak or partial responses and may not hold up.

By UniProt entry, the sequences of proteins in these tests, tags left out. Where a name states a change or a piece, a line headed by the entry shows the natural chain unless it says otherwise.
UniProt O94782: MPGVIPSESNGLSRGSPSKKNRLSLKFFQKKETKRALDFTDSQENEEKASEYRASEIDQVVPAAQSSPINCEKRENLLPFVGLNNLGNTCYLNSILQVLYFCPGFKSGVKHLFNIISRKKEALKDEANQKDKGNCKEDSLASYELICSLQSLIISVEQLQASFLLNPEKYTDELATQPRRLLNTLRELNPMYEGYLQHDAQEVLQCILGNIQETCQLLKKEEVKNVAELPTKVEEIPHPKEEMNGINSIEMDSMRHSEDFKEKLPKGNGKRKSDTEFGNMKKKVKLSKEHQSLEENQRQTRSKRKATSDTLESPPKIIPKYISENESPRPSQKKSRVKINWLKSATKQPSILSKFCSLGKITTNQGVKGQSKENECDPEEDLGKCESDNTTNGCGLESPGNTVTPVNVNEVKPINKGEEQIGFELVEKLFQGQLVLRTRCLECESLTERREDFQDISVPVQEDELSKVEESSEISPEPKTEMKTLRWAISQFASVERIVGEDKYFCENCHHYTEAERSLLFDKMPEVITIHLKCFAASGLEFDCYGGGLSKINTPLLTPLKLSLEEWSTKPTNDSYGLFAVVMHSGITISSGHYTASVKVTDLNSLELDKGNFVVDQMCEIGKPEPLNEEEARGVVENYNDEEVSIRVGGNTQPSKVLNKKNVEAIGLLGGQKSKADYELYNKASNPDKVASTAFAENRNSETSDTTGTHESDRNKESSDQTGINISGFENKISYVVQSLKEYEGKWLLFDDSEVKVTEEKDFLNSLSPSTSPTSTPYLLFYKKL

Each molecule was assayed against Ubiquitin carboxyl-terminal hydrolase 1 (Homo sapiens) (UniProt O94782) (assay: Inhibitors of USP1/UAF1: Primary Screen). Settings: recombinant USP1/UAF1, Ub-Rhodamine cleavage fluorescence; activity change, negative = inhibition: at 57.1 µM (top of the series).
Procedure, shortened: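 Step one: compound is pinned into 1nM USP1/UAF1 in HEPES pH 7.8 buffer with TCEP. Step two: 15 min room-temperature incubation. Step three: Ub-Rho (150nM final) starts cleavage, tracked by fluorescence over six one-minute reads.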
Further: nearly all actives have a fitted effect of over 60% in size.
On the % scale 0 is the no-effect control and ±100 the full control effect; potency means the concentration at half of the fitted maximal effect.

Structure (SMILES)	activity change, negative = inhibition	Potency
O=C(Nc1nccs1)c1cncc(Br)c1	inactive: -0.485%	
COC(C[C@@H]1O[C@H]1[C@@H](O)COCc1ccccc1)OC		inconclusive: 39.8 µM [inhibitor, partial curve, poor fit]
CC(C)(C)OC(=O)C[C@H]1C/C=C\C[C@@H](CC(=O)N[C@@H](CO)Cc2ccccc2)C(=O)NCCOC1=O		inconclusive: 89.1 µM [inhibitor, partial curve, poor fit]
CCCN(CCC)CCCNC(=O)Cn1ncc2c3ccccc3n(Cc3ccccc3F)c2c1=O	inactive: -25.4%	
O=C(Cn1ncc2ccccc21)N1CCN(c2cccc(C(F)(F)F)c2)CC1		inconclusive: 39.8 µM [inhibitor, single point]
CCN1/C(=C/c2sc(-c3ccccc3C)c[n+]2C)Sc2ccccc21	inactive: -17.3%	
N#Cc1cccc(NC(=O)COC(=O)c2cc(S(=O)(=O)Nc3ccccc3Cl)ccc2O)c1		inconclusive: 14.1 µM [inhibitor, partial curve]
NC(=O)CC(NC(=O)c1cccc(Br)c1)c1ccc(NC2CCC2)c([N+](=O)[O-])c1 (stereo not given)		inconclusive: 50.1 µM [inhibitor, partial curve, poor fit]
O=c1cc(-c2c(O)c3ccccc3n(Cc3ccccc3)c2=O)[nH][nH]1		inconclusive: 0.631 µM [inhibitor, full curve, poor fit]
Cc1ccc(N2C(=O)C3C(C(=O)c4ccccc4)=NN(c4ccccc4)C3C2=O)cc1 (stereo not given)		inconclusive: 28.2 µM [inhibitor, partial curve]
COc1ccc(OC)c(NC(=O)c2cnc(N3CCCCC3)c3ccccc23)c1	inactive: -18.3%	
CCCCC1=CC2=CC(=O)C(C)(OC(=O)CC)C(=O)C2=CN1C1CCCC1 (stereo not given)	inactive: -16.6%	
Cc1cc(C(=O)CSc2nnc(-c3cccnc3)n2-c2ccccc2)c(C)n1CC1CCCO1 (stereo not given)		inconclusive: 31.6 µM [inhibitor, partial curve]
CN(C)c1ccc2c(c1)OC(N)=C(C#N)C2c1cccc(F)c1 (stereo not given)		inconclusive: 31.6 µM [inhibitor, partial curve]
O=C(Nc1cccc2ccccc12)NC1Cc2ccccc2C1		inconclusive: 0.355 µM [inhibitor, full curve, poor fit]
CCc1nnc(NC(=O)c2cccs2)s1		inconclusive: 11.2 µM [inhibitor, partial curve, poor fit]
COc1ccc(NS(=O)(=O)c2cccc(-c3nnc(-c4ccccc4)o3)c2)cc1	inactive: -5.96%	
Fc1ccc(Nc2ccc(-c3ccc(F)cc3)nn2)cc1	inactive: -17.7%	
Cc1ccc(C(=O)NCC(c2ccco2)S(=O)(=O)c2cccs2)cc1C (stereo not given)		inconclusive: 112 µM [inhibitor, partial curve]
COc1cc2nc(Nc3cccc(C)c3)nc(N)c2cc1OC	inconclusive: -13.9% [inhibitor]	

Structure (SMILES)	activity change, negative = inhibition	Potency
CC(C)CCNC(=O)C1CC2Cn3c(nc4cc(Cl)c(Cl)cc43)C2N1C (stereo not given)		inconclusive: 0.112 µM [inhibitor, full curve, poor fit]
c1ccc(Cc2nnc3sc(Nc4ccccc4)nn23)cc1	inactive: -16.7%	
Cn1c(-c2ccccc2)c(C#Cc2ccc(N)cc2)c2ccccc21		inconclusive: 11.2 µM [inhibitor, partial curve]
CCOc1ccc(C(=O)NCCc2ccccc2)cc1		inconclusive: 28.2 µM [inhibitor, single point]
CN1CCN(CCCN2c3ccccc3Sc3ccc(S(=O)(=O)N(C)C)cc32)CC1		inconclusive: 12.6 µM [inhibitor, partial curve]
C[n+]1c(-c2ccccc2)cc2c(=Cc3ccc([N+](=O)[O-])cc3)c3ccccc3n21		active: 3.55 µM
COc1ccc(NC(=O)CSc2n[nH]c(-c3ccccc3)n2)cc1Cl		inconclusive: 5.01 µM [inhibitor, full curve]
CCCCCC(=O)Cc1cc(O)cc2c1C(=O)Oc1cc(O)c(C(=O)O)c(CCCCC)c1O2		inconclusive: 50.1 µM [inhibitor, partial curve, poor fit]
CN(C)CC(CCCCC(CN(C)C)C(=O)c1ccccc1)C(=O)c1ccccc1 (stereo not given)	inactive: -13.8%	
Cc1cc(Nc2cccc(C(F)(F)F)c2)nc2ccc(NC(=O)c3cncc(Br)c3)cc12		inconclusive: 10 µM [inhibitor, full curve, poor fit]
COc1ccc(-c2ccc(C(c3c(C)[nH][nH]c3=O)c3c(C)[nH][nH]c3=O)o2)c([N+](=O)[O-])c1		inconclusive: 0.251 µM [inhibitor, full curve, poor fit]
CC1CN(c2ccnc3cc(Cl)ccc23)CC(C)O1 (stereo not given)		inconclusive: 14.1 µM [inhibitor, partial curve, poor fit]
CCOC(=O)c1noc2nc(C)n(CC(=O)Nc3ccc(Br)cc3C)c(=O)c12		inconclusive: 7.08 µM [inhibitor, single point]
CCCn1c(SCC(=O)Nc2ccc(S(=O)(=O)N3CCOCC3)cc2)n[nH]c1=O		inconclusive: 0.316 µM [inhibitor, full curve, poor fit]
Cc1cccc(NC(=O)c2sc3nc(C)nc(N4CCOCC4)c3c2C)c1		inconclusive: 0.251 µM [inhibitor, full curve, poor fit]
O=C(Cn1ncc2c3ccccc3n(Cc3ccc(Cl)cc3)c2c1=O)NC1CCCCCC1		inconclusive: 35.5 µM [inhibitor, partial curve]
COCCN(CC(=O)Nc1cccc(C)c1C)C(=O)/C=C/c1ccc2c(c1)OCCO2		inconclusive: 39.8 µM [inhibitor, partial curve, poor fit]
Cc1ccc(C)c(NC(=O)CSc2nnc(-c3ccco3)o2)c1		inconclusive: 158 µM [inhibitor, partial curve, poor fit]
CCOC(=O)c1cc2c(=O)n3ccccc3nc2n(CC2CCCO2)c1=NC(=O)c1cc(C)cc(C)c1 (stereo not given)		inconclusive: 39.8 µM [inhibitor, partial curve]
Cc1nc(N2CCCC2)ncc1C(=O)NCc1ccccc1Cl		inconclusive: 7.08 µM [inhibitor, single point]

Single values from the entries so far.
Entry for Cc1nc(N2CCCC2)ncc1C(=O)NCc1ccccc1Cl under Potency: inconclusive: 7.08 µM [inhibitor, single point]
Entry for COc1ccc(-c2ccc(C(c3c(C)[nH][nH]c3=O)c3c(C)[nH][nH]c3=O)o2)c([N+](=O)[O-])c1 under Potency: inconclusive: 0.251 µM [inhibitor, full curve, poor fit]
Entry for COCCN(CC(=O)Nc1cccc(C)c1C)C(=O)/C=C/c1ccc2c(c1)OCCO2 under Potency: inconclusive: 39.8 µM [inhibitor, partial curve, poor fit]
